Experimental data as given in article PMC12564220.
Results are given in words; binding and its absence hold for the method and conditions named. Binding seen in cells or lysates may run through a third protein. A result given as binding can be weak or reduced; the word gives no strength. Where a sequence is shown, tags or fusion partners need not be part of it.

Amino acid sequences for entries named in this document (tags omitted). A change or cut given only in a name is not applied to a line headed by its entry.
UniProt Q86TM6: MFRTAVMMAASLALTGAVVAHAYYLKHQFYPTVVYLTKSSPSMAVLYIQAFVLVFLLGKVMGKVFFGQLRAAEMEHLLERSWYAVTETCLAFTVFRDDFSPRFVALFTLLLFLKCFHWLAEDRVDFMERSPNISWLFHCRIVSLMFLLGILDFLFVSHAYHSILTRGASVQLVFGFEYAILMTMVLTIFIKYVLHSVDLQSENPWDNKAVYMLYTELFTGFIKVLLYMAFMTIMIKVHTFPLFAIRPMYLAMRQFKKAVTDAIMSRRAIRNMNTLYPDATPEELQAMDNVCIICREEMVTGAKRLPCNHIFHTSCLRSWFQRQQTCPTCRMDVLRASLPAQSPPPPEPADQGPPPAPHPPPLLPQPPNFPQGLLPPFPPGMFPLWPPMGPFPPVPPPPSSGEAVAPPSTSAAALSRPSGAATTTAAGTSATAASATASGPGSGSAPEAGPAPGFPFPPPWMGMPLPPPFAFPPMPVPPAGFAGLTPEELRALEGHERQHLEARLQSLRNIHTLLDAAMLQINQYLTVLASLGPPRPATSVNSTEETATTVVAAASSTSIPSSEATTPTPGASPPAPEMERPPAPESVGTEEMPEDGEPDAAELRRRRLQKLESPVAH

Target: T1, H2aG78R uncleavable mutant fused through its C-terminus to a 38-amino acid streptavidin binding peptide (human) (UniProt P07307)
T1 sequence: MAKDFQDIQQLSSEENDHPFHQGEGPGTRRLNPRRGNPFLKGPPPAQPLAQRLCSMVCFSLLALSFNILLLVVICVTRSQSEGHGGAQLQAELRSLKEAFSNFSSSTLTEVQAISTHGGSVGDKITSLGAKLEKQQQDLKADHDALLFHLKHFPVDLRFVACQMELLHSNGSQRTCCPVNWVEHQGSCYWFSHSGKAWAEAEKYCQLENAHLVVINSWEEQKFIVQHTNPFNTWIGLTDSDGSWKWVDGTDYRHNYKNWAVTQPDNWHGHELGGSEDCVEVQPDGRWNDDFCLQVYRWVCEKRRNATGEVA
Assay: pull-down; H2aSBP precipitated with streptavidin-agarose beads from lysates of SBP6 cells transfected with mutHRD1-myc, treated or not for 4 h with 20 μM MG132; elution with biotin; immunoblot with anti-H2a or anti-myc; control HEK293 cells without H2aSBP

dominant negative mutant hsHRD1-myc (from UniProt Q86TM6) (enzyme)
binding: binds
